Measurements as given in patent publication US20210155697A1 (UNITY BIOTECHNOLOGY, published 2021).
No constants are given. Whether binding was seen depends on the method and setting. Some entries that bind do so weakly or less than the wild type.

Chains of the proteins cited; added tags and fusions are not shown. Lines headed by an entry give the natural chain unless they say otherwise; changes in a name come on top. Residues count along the entry.
UniProt Q02763: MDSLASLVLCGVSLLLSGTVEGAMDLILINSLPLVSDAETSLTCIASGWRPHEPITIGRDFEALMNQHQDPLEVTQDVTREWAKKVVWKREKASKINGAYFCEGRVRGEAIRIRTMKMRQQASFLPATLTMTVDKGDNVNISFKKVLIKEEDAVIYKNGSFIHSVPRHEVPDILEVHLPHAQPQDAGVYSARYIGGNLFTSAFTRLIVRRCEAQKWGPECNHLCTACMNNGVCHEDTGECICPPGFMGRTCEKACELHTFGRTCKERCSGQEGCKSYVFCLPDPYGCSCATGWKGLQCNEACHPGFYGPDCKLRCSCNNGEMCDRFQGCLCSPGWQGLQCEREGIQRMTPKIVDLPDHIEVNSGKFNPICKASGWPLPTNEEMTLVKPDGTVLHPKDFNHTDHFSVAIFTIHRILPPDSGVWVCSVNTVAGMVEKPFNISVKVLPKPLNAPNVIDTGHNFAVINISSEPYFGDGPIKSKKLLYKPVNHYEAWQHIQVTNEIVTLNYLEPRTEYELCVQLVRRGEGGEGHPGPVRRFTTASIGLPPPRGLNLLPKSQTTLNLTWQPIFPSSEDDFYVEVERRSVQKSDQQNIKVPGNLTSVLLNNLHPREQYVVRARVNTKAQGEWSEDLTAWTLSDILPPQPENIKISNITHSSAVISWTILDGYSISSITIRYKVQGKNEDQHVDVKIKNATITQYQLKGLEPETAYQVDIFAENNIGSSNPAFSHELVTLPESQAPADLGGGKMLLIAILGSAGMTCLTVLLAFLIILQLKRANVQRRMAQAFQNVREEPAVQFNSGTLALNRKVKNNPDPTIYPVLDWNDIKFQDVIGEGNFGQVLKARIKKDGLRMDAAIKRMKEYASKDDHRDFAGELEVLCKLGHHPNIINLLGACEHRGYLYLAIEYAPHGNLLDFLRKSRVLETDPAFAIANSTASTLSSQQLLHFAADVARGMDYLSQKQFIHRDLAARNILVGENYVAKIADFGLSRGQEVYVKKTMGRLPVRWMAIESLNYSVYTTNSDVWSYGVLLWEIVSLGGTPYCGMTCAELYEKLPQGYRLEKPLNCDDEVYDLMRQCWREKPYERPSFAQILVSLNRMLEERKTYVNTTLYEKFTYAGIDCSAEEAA
UniProt O15123, residues 19-496: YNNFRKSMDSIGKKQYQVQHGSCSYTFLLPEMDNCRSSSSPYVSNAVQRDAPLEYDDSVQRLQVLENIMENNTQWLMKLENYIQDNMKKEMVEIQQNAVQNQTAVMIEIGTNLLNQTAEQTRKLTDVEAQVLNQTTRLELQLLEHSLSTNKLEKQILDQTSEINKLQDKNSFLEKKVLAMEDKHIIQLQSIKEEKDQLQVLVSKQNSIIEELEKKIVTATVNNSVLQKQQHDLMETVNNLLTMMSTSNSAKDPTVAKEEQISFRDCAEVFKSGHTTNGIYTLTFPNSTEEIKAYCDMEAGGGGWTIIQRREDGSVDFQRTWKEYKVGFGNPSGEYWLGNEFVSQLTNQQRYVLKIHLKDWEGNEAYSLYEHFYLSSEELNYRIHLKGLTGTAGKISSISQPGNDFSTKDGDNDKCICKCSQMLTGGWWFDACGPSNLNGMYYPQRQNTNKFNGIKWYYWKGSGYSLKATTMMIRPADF

Columns and labels:
[1] = biological target: recombinant his-tagged Tie2 ECD (Homo sapiens (Human)) (UniProt Q02763); assay: BLI, his-tagged Tie2 ECD (100 nM) on Ni-NTA biosensor, buffer or anti-Tie2 antibody (100 nM), then Ang2 at 100 nM
[2] = biological target: recombinant his-tagged Tie2 ECD (Homo sapiens (Human)) (UniProt Q02763); assay: BLI, his-tagged Tie2 ECD on Ni-NTA biosensor, antibody pre-bound

- binding [1]: binds
- binding [2]: binds
Substance: Angiopoietin-2 (from UniProt O15123 19-496) (ligand)
